Laboratory results taken from patent US20080201871A1, “ANTIMICROBIAL COLORANTS” (The Regents of the University of California, priority 2003, published 2008).
Some results were stated once for a whole list of compounds, not compound by compound. At least one structure is not confirmed: it was looked up by name or label, or the drawing left a doubt.

Test system: E. coli
Assay: Antimicrobial efficacy (log reduction) at fixed concentration and contact time
Assay type: cell-based, Escherichia coli
Conditions: 10 ppm
Experimental: Antimicrobial activity of the agents in aqueous solution was evaluated by a minimum inhibitory concentration (MIC) procedure (Kaminski, J. J., Hyycke, N. M. et al., Pharm. Sci., 65(12):1737 (1976)). MIC refers to the lowest concentration of biocides that prohibit population and reproduction of microorganisms. In this method, 1 mL of an aqueous suspension containing 10^6˜10^7 colony-forming units (CFU)/mL of Staphylococcus aureus (S. aureus, ATCC #12600, Gram-positive) or Escherichia coli (E. coli, K-12, Gram-negative) were placed into 9 mL aqueous solutions containing different concentrations of the agents for a contact time of 24 hours. After the contact, a 100 μL aliquot of the resultant solution was serially diluted by sterilized distilled water to 10^1, 10^2, 10^3, 10^4 and 10^5. 100 μL of the last four dilutions were placed onto a nutrient agar plate and incubated at 37° C. for 24 hours. The same procedure was applied to a distilled water solution without the antimicrobial agents as a control. […]
To better study the biocidal rate of these colorants, the antimicrobial efficacy of the colorants in terms of log reduction is assessed against E. Coli under different contact time ranging from 15 minutes to 24 hours. […]

Structure (SMILES)	Contact time to kill the bacteria completely
CCCCCCCC[N+](C)(C)CC(O)CNc1ccc(NCC(O)C[N+](C)(C)CCCCCCCC)c2c1C(=O)c1ccccc1C2=O.[Cl-].[Cl-] (centres unmarked) [Di-8]	≤ 15 min
CCCCCCCCCCCC[N+](C)(C)CC(O)CNc1ccc(NCC(O)C[N+](C)(C)CCCCCCCCCCCC)c2c1C(=O)c1ccccc1C2=O.[Cl-].[Cl-] (centres unmarked) [Di-12]	≤ 15 min
